Reference: US9861616B2, “Methods for treating respiratory diseases and formulations therefor” (priority 2013, dated 2018)
Some of these results come from one statement about several compounds together.

System: MRSA strains from CF patients
Test: Microdilution MICs against 40 MRSA strains from CF patients
Format: cell-based, S. aureus
Parameters: unit not given beside the values
Conditions: most strains (38 of 40) resistant
Experimental: Two strains each of mucoid P. aeruginosa (both pyocyanin positive) and […] MRSA (only one strain with gold colonies) isolated from patients at a CF clinic were tested. Additionally, 2 B. cepacia strains were acquired, from Hershey Medical Center. All strains were identified by standard methods. Only one strain per patient was tested. MLVA was done on all strains to examine clonality, and confirmed that examination is not taking place on only one or a few clones. Strains will be stored in skim milk at −70° C. until use.
Original MICs of each strain to CEM-101 and other comparators were tested by CLSI microdilution methodology. Trays were obtained from Trek, Inc., Cleveland, Ohio. Time-kill macrobroth MIC dilution by CLSI was performed for all synergy testing.

CC[C@H]1OC(=O)[C@H](C)[C@@H](O[C@H]2C[C@@](C)(OC)[C@@H](O)[C@H](C)O2)[C@H](C)[C@@H](O[C@@H]2O[C@H](C)C[C@H](N(C)C)[C@H]2O)[C@](C)(O)C[C@@H](C)CN(C)[C@H](C)[C@@H](O)[C@]1(C)O [AZM, azithromycin]
MIC of resistant strains: > 32

CC[C@H]1OC(=O)[C@H](C)[C@@H](O[C@H]2C[C@@](C)(OC)[C@@H](O)[C@H](C)O2)[C@H](C)[C@@H](O[C@@H]2O[C@H](C)C[C@H](N(C)C)[C@H]2O)[C@](C)(OC)C[C@@H](C)C(=O)[C@H](C)[C@@H](O)[C@]1(C)O [CLR, clarithromycin]
MIC of resistant strains: > 32
